Among all 320,000 compounds or so, about 2,100 (0.66%) were called active. The shares of active, inactive and inconclusive entries below differ from those in the screen. The call rests on the fitted dose curve; in most records, active means well fitted inhibition curve with a large enough effect in the signal ratio, with a control signal flat (not every such curve was filed as active); inconclusive means small, poorly fitted or top-dose-only effect, or effect the other way, or a change in a side signal; inactive means flat fitted curve, though single readings scatter; the % refers to the signal ratio. Potencies of inconclusive entries are doubtful fits and often do not repeat.
assay: qHTS Assay for Lipid Storage Modulators in Drosophila S3 Cells; conditions: BODIPY lipid droplet fluorescence, 18-24 h, cells fed with added oleic acid; lipid storage change, negative = inhibition: at 46.1 µM (top of the series) unless noted
Outline: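 Drosophila S3 cells got compounds at several concentrations plus oleic acid (400 uM solution). Laser-scanning cytometry with 488 nm excitation read lipid droplets at 500-530 nm and cells at 575-640 nm. Percent activity was relative to 20 uM Triacsin C.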
On the % scale 0 is the no-effect control and ±100 the full control effect; potency means the concentration at half of the fitted maximal effect.

SMILES | lipid storage change, negative = inhibition | Potency
COc1cccc(NC(=O)C(C)Oc2ccccc2)c1 (stereo not given) | inconclusive: -11.5% | 
N#Cc1ccc(C(=O)NC2CCCc3ccccc32)cc1 (stereo not given) | inconclusive: 4.73% | 
COCCNC(=O)CS(=O)(=O)Cc1nc(-c2ccc(C)cc2)oc1C | inconclusive: 5.28% | 
CCn1nnnc1NCc1ccc(SC)cc1 |  | inconclusive: 14.6 µM [activator, single point]
CN(CC(=O)Nc1ccccc1Cl)C(=O)Cn1cc(C(F)(F)F)ccc1=O |  | inconclusive: 29.1 µM [activator, single point]
S=C(NC1CCCCC1)N1CCOCCOCCN(C(=S)NC2CCCCC2)CCOCC1 | inconclusive: -19.6% | 
O=C(O)c1cccc(-c2ccc(/C=N/NC(=O)C3COc4ccccc4O3)o2)c1 (stereo not given) | inconclusive: 21.9% [at 9.22 µM] | 
O=C(NC(=S)Nc1ccccn1)c1cncc(Br)c1 | inconclusive: 2.85% | 
CCN1CCN(C(=O)CSc2nc3c(c(=O)n(C)c(=O)n3C)n2C)CC1 | inconclusive: -14.1% | 
COc1ccc(-c2cc(-c3n[nH]c(=S)n3-c3ccccc3OC)[nH]n2)cc1 |  | inconclusive: 3.26 µM [activator, partial curve, poor fit]
CC1(C)Cc2cccc(OCC(=O)NCc3ccccc3F)c2O1 | inconclusive: 33.8% | 
O=C(Cn1c(=O)oc2cc(S(=O)(=O)N3CCCCC3)ccc21)N1CCc2ccccc2C1 | inconclusive: -9.91% | 
CCc1ccc(CN(C)C(=O)C2CCC(=O)N(Cc3cccc(OC)c3)C2)nc1 (stereo not given) |  | inconclusive: 6.51 µM [falling, single point]
CC(C)CNC(=S)Nc1ccccc1F | inconclusive: -15% | 
CC(C)CN(C(=O)c1cccc(S(=O)(=O)N2CCCCC2)c1)C1CCS(=O)(=O)C1 (stereo not given) | inconclusive: -30% | 
COc1ccc(/C=N/NC(=O)c2cccnc2)cc1CSc1ccccn1 | inconclusive: 22.4% | 
C=CCOc1ccccc1CN1CCCN(C)CC1 | inconclusive: 61.5% | 
Cc1cc(C(=O)NCc2cc(C)n(C)n2)sc1-c1ccccc1 |  | inconclusive: 6.51 µM [rising, single point]
Cc1ccc2c(cnn2C(=O)CCCC(=O)NC(C)c2ccccc2)c1 (stereo not given) |  | inconclusive: 29.1 µM [activator, single point]
Cc1oc2ccc(OC(C(=O)O)c3ccccc3)cc2c1C(=O)O (stereo not given) |  | inconclusive: 16.4 µM [activator, partial curve, poor fit]
O=C(O)c1cc2[nH]c3c(c2cc1Cl)CCCC3 |  | active: 4.11 µM
O=C(c1cnccn1)N1CCN(c2ccccc2F)CC1 | inactive | 
CCOc1cccc(NC(=O)/C(C#N)=C\c2cn(CC(=O)O)c3ccccc23)c1 | inconclusive: 33.3% | 
CC(=O)c1ccc(N2CCN(C(=O)CCCn3c(=S)[nH]c4cc5c(cc4c3=O)OCO5)CC2)cc1 | inconclusive: -5.33% | 
O=C(COC(=O)c1nc(Cl)ccc1Cl)NCc1ccccc1 |  | inconclusive: 29.1 µM [falling, single point]

SMILES | lipid storage change, negative = inhibition | Potency
COc1ccc(/C=C/C(=O)c2ccc3c(c2)OCCO3)cc1[N+](=O)[O-] |  | inconclusive: 29.1 µM [falling, single point]
C=CCn1c(CCNC(=O)c2ccc(Cl)c(Cl)c2)nnc1SCCOc1ccc(OC)cc1 | inactive | 
O=C(CCC(NC(=O)OCc1ccccc1)C(=O)OCc1ccccc1)NCC(=O)OCc1ccccc1 (stereo not given) | inconclusive: 16.2% | 
CC1=C(C(=O)OCC(C)C)C23C(=O)c4ccccc4C2(O1)OC(N)=C3C#N (stereo not given) | inconclusive: -7.51% | 
CN(C)c1ccc(/C=C2\CCC/C(=C\c3ccccc3)C2=O)cc1 |  | inconclusive: 20.6 µM [cytotoxic, single point]
Cc1ccc(N(CCC#N)C(=O)CSc2nc3ccccc3c(=O)[nH]2)cc1 |  | inconclusive: 0.116 µM [activator, full curve, poor fit]
O=C(CCS(=O)(=O)c1ccccc1)NC1CCCC1 |  | inconclusive: 16.4 µM [activator, single point]
CC(OC(=O)C1CC(=O)N(Cc2ccco2)C1)C(=O)Nc1cccc(C#N)c1 (stereo not given) | inconclusive | 
Oc1ccc(/C=N/Nc2ccnc3cc(Cl)ccc23)cc1O |  | inconclusive: 29.1 µM [falling, single point]
COCCCn1c(C)nnc1SCC(=O)NNC(=O)COc1ccc(Cl)cc1 |  | inconclusive: 29.1 µM [activator, single point]
COc1ccc(-c2cc(C(=O)N3CCCC(C(F)(F)F)C3)c3ccccc3n2)cc1OC (stereo not given) | inconclusive: 25.2% | 
Cc1ccc(-n2ncc3c(=O)n(CC#N)cnc32)cc1C | inconclusive: 6.06% | 
COc1ccccc1CNS(=O)(=O)c1c(C)nc2scc(C)n2c1=O |  | inconclusive: 29.1 µM [falling, single point]
Cc1cc(C)n2cc(CSc3nnnn3-c3ccccc3)nc2n1 |  | inconclusive: 0.92 µM [activator, full curve, poor fit]
Cc1ccsc1C(=O)N1CCN(S(=O)(=O)c2cccc(F)c2)CC1 | inconclusive: 33.2% | 
COc1ccc(S(=O)(=O)Nc2ccc(Cl)cn2)c(C)c1C | inconclusive: 32.2% | 
CC1OC(O[C@H]2CC[C@]3(C)C4C=C[C@]56OC[C@@]7(CC[C@@H](C)[C@H](C)C75)[C@H](O)C[C@@]6(C)[C@]4(C)CC[C@H]3C2(C)C)C(OC2OC(CO)C(O)C(O)C2OC2OCC(O)C(O)C2O)C(O)C1O (stereo not given in full) | inconclusive: -60.3% | 
CCN(C(=O)COC(=O)c1cccnc1SC)c1c(N)n(Cc2ccccc2)c(=O)[nH]c1=O |  | inconclusive: 0.0046 µM [falling, full curve, poor fit]
CCOC(=O)N1CCC(NC(=O)CS(=O)(=O)Cc2nc(-c3ccc(C)cc3)oc2C)CC1 |  | inconclusive: 0.291 µM [activator, partial curve, poor fit]
CC(=O)N1C(C)c2ccccc2C(C)(C)CC12CCCCC2 (stereo not given) |  | inconclusive: 29.1 µM [falling, single point]
COCCN(C(=O)COC(=O)c1ccc(C)o1)c1c(N)n(Cc2ccccc2)c(=O)[nH]c1=O | inconclusive | 
Cc1ccccc1C(=O)NC(=S)Nc1ccc(N2CCN(C(=O)c3ccccc3)CC2)cc1 | inconclusive: -8.67% | 
O=C(NCCCN1CCCC1=O)c1cccs1 | inconclusive: -7.81% | 
COc1ccccc1CNS(=O)(=O)c1c(C)[nH]c(C)c1C(=O)N1CCCCC1 |  | active: 18.4 µM
CCN(CC)C(=O)C[n+]1cccc(/C=N/O)c1 |  | inconclusive: 16.4 µM [activator, single point]

As a working copy, four of the compounds above:
SMILES | lipid storage change, negative = inhibition | Potency
Cc1ccccc1C(=O)NC(=S)Nc1ccc(N2CCN(C(=O)c3ccccc3)CC2)cc1 | inconclusive: -8.67% | 
O=C(NCCCN1CCCC1=O)c1cccs1 | inconclusive: -7.81% | 
COc1ccccc1CNS(=O)(=O)c1c(C)[nH]c(C)c1C(=O)N1CCCCC1 |  | active: 18.4 µM
CCN(CC)C(=O)C[n+]1cccc(/C=N/O)c1 |  | inconclusive: 16.4 µM [activator, single point]

Additional records follow.

SMILES | lipid storage change, negative = inhibition | Potency
O=C(N[C@@H](c1ccccc1)[C@@H]1C[C@H]1C(=O)NCc1ccccn1)OCc1ccccc1 |  | inconclusive: 16.4 µM [activator, single point]
COc1cccc(CN(C(=O)Cn2nnc(-c3ccccc3F)n2)C(C(=O)NC(C)(C)C)c2ccncc2)c1 (stereo not given) | inconclusive: 11.9% | 
NC(=O)C1CCN(C(=O)CNC(=O)c2ccccc2)CC1 | inconclusive: 19.6% | 
O=C(O)C(F)(F)C(NCc1ccccc1)c1ccccc1 (stereo not given) | inconclusive: -25.8% | 
COc1ccc(N2C(=O)CC(N3CCN(c4nc5ccccc5s4)CC3)C2=O)cc1 (stereo not given) | inconclusive: 4.18% | 
C=CCC(O)(CCN1CCCCC1)c1ccccc1 (stereo not given) | inconclusive: 5.62% | 
Cc1[nH]c(=O)[nH]c(=O)c1NC(=O)c1ccc(OC(C)C)cc1 | inconclusive: 21.7% | 
Cc1ccc(C)c(OCc2cc(C(=O)N3CCN(c4cnccn4)CC3)no2)c1 | inconclusive: 36.3% | 
COc1ccc(C(C(=O)NCC2CCCO2)N(C(=O)c2snc(C(N)=O)c2N)c2ccccc2C)cc1OC (stereo not given) | inconclusive: 167% | 
OCCNc1nc2ccccc2n1CCN1CCCCC1 | inconclusive: 10.7% | 
Cc1ccc(S(=O)(=O)CC2CSc3nnc(C)c(=O)n32)cc1 (stereo not given) | inconclusive: 6.24% | 
COc1ccc(OC)c(N(CC(=O)NCc2ccccc2)S(=O)(=O)c2ccc(OC)c(OC)c2)c1 |  | inconclusive: 29.1 µM [activator, single point]
COc1ccc(C2/C=C\CN(C(=O)NC(C)C)CC(=O)N2Cc2ccc(F)cc2)cc1 (stereo not given) | inconclusive: 7.84% | 
CN(C)S(=O)(=O)c1cccc(COC(=O)CCNC(=O)c2ccc([N+](=O)[O-])cc2)c1 |  | active: 2.31 µM
CC1CCN(S(=O)(=O)c2cccc(-c3cn4cc(Cl)ccc4n3)c2)CC1 |  | inconclusive: 6.51 µM [activator, single point]
CCC(C)(C)NC(=O)Cc1ccc(C)cc1 | inconclusive: 33.2% | 
Cc1cccc(NC(=S)N2CCN(c3cc(C)ccc3C)CC2)c1 | inconclusive: 0.335% | 
COC(=O)c1ccc(NC(=O)c2ccc(C)cc2)o1 | inconclusive: 16.1% | 
O=C(CCNC(=O)c1ccccc1Cl)NCCCSc1ccccc1 | inconclusive: -1.49% | 
COc1ccc(/C=N/NC(=O)CCc2nc3ccccc3[nH]2)cc1 | inconclusive: 21.7% | 
O=Cc1c(NC2CCCCC2)c2ccccc2[nH]c1=O |  | inconclusive: 16.4 µM [falling, single point]
O=C(COC(=O)C1CCCN1C(=O)c1cccs1)Nc1ccc2c(c1)OCO2 (stereo not given) | inactive | 
CCOC(=O)C1=C(COC(=O)COc2cccc(C)c2C)NC(=O)NC1C (stereo not given) | inconclusive: -16.3% | 
COc1ccc(NC(=O)C2CSC(C)(C)N2C=O)cc1 (stereo not given) | inactive | 
CCc1c(C)sc(NC(=O)c2cc(-c3ccco3)on2)c1C#N |  | inconclusive: 18.4 µM [activator, single point]

Source: PubChem BioAssay AID2685 (National Center for Advancing Translational Sciences (NCATS), 2010)
